Values quoted from earlier work, collected in patent US20250114377A1, “TWO-PRONGED TREATMENT FOR NIEMANN PICK TYPE C DISEASE” (UNIVERSITY OF NOTRE DAME DU LAC, priority 2022, published 2025).

Conditions: mice harboring a transgene for Cyp27a; personal communication; cited from earlier work

Question: Which results are given for `C[C@@H](CO)CCC[C@@H](C)[C@H]1CC[C@H]2[C@@H]3CC=C4C[C@@H](O)CC[C@]4(C)[C@H]3CC[C@]12C` [27-HC, 27-hydroxycholesterol]?
Answer: Blood levels of 27-HC: ~500 ng/mL; Blood levels of 27-HC, fold higher than normal: 5 ×
